Values quoted from earlier work, collected in patent US20070117729A1, “Multi-phase personal care composition comprising a depositing perfume” (priority 2005, published 2007).
The name of at least one read-out is uncertain.

Details: as reported by C. D. Vaughan, Cosmetics and Toiletries, Vol. 103, October 1988

| Vaughan Solubility Parameter (VSP) | Molecule |
| --- | --- |
| 6.03 (cal/cm^3)^1/2 | CC(C)=CCC/C(C)=C/CC/C(C)=C/CC/C=C(\C)CC/C=C(\C)CCC=C(C)C [Squalene] |
| 5.92 (cal/cm^3)^1/2 | Cyclomethicone |
| 9.55 (cal/cm^3)^1/2 | CC(C)CCC[C@@H](C)[C@H]1CC[C@H]2[C@@H]3CC=C4C[C@@H](O)CC[C@]4(C)[C@H]3CC[C@]12C [Cholesterol] |
| 7.78 (cal/cm^3)^1/2 | CCCCCCCCCCCCCCCC(=O)OC(C)C [Isopropyl Palmitate] |
